Experimental data: PubChem BioAssay AID720505 (Drosophila RNAi Screening Center, 2013)

Purpose: 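Knock-downs that reduce calcium influx once internal stores are emptied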 (primary screen)
Cell system: Drosophila S2R+ cells
Reagents: long dsRNA against Drosophila genes
Conditions: thapsigargin (2 µM) in calcium-free buffer to empty internal stores, then 2 mM calcium added back
Measured: 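Fluo-4 signal in 384-well plates read on a FLIPR after thapsigargin (2 µM, calcium-free) store depletion and 2 mM calcium add-back; unnormalised mean endpoint per well; screen run twice, selected wells retested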
Scale: calcium signal: higher = more calcium entry after store depletion
Hit rule: 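Knock-downs counted as hits when calcium entry dropped relative to STIM1 positive and Rho1 negative controls present on each plate; roughly 1500 genes called, with reductions of differing size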
Calls: active = called as lowering calcium entry; inactive = not called
The deposit covers about 20,000 reagents; this is an unselected part of those that have a named target and a result. Of all reagents, about 2,100 (10%) were called active. 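Raw plate signals without normalisation; calls rest on control-based scores that were not deposited; replicate 2 separates called from uncalled poorly.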 The record does not give: the amount of reagent, the time to read-out.

E2f2 (E2F transcription factor 2) [DRSC03320]
- calcium signal, replicate 1: 109
- calcium signal, replicate 2: 94.5
- Call: inactive

eEF1gamma (eukaryotic translation elongation factor 1 gamma) [DRSC16659]
- calcium signal, replicate 1: 50.5
- calcium signal, replicate 2: 76.2
- Call: active

CG5172 [DRSC19936]
- calcium signal, replicate 1: 69.3
- calcium signal, replicate 2: 113
- Call: active

CG5388 [DRSC15789]
- calcium signal, replicate 1: 207
- calcium signal, replicate 2: 168
- Call: inactive

Nost (Nostrin) [DRSC18037]
- calcium signal, replicate 1: 62.7
- calcium signal, replicate 2: 310
- Call: active

Nost (Nostrin) [DRSC18338]
- calcium signal, replicate 1: 49.2
- calcium signal, replicate 2: 250
- Call: active

CG31807 [DRSC01550]
- calcium signal, replicate 1: 121
- calcium signal, replicate 2: 92.4
- Call: inactive

An excerpt from above, showing only “calcium signal, replicate 1”:
CG5172 [DRSC19936]	69.3
CG5388 [DRSC15789]	207

Continued:
Ugt49B1 (UDP-glycosyltransferase family 49 member B1) [DRSC04461]
- calcium signal, replicate 1: 94.3
- calcium signal, replicate 2: 104
- Call: inactive

CG8219 [DRSC10971]
- calcium signal, replicate 1: 100
- calcium signal, replicate 2: 75.5
- Call: inactive

CG4230 [DRSC02740]
- calcium signal, replicate 1: 88.1
- calcium signal, replicate 2: 206
- Call: inactive

sofe [DRSC19751]
- calcium signal, replicate 1: 110
- calcium signal, replicate 2: 75.9
- Call: inactive

CG6321 [DRSC10623]
- calcium signal, replicate 1: 57.2
- calcium signal, replicate 2: 94.7
- Call: active

CG18493 [DRSC15334]
- calcium signal, replicate 1: 188
- calcium signal, replicate 2: 187
- Call: inactive

CG32988 [DRSC02692]
- calcium signal, replicate 1: 82.3
- calcium signal, replicate 2: 80.3
- Call: active

Or43a (Odorant receptor 43a) [DRSC07485]
- calcium signal, replicate 1: 108
- calcium signal, replicate 2: 109
- Call: inactive

raskol [DRSC19202]
- calcium signal, replicate 1: 81.6
- calcium signal, replicate 2: 116
- Call: inactive

raskol [DRSC19731]
- calcium signal, replicate 1: 89.6
- calcium signal, replicate 2: 122
- Call: inactive

raskol [DRSC19964]
- calcium signal, replicate 1: 98.3
- calcium signal, replicate 2: 94.9
- Call: inactive

raskol [DRSC19967]
- calcium signal, replicate 1: 65.1
- calcium signal, replicate 2: 70.4
- Call: active

raskol [DRSC21788]
- calcium signal, replicate 1: 178
- calcium signal, replicate 2: 98.4
- Call: inactive
